Consider 1 substance from PMC6947505.

Results are given in words; binding and its absence hold for the method and conditions named. In cells and extracts the contact can be indirect. Where a sequence is shown, tags or fusion partners need not be part of it.

The target of this assay is T1, Flag-p100 (3KR, K332/338/341R) (UniProt Q00653).
T1 sequence: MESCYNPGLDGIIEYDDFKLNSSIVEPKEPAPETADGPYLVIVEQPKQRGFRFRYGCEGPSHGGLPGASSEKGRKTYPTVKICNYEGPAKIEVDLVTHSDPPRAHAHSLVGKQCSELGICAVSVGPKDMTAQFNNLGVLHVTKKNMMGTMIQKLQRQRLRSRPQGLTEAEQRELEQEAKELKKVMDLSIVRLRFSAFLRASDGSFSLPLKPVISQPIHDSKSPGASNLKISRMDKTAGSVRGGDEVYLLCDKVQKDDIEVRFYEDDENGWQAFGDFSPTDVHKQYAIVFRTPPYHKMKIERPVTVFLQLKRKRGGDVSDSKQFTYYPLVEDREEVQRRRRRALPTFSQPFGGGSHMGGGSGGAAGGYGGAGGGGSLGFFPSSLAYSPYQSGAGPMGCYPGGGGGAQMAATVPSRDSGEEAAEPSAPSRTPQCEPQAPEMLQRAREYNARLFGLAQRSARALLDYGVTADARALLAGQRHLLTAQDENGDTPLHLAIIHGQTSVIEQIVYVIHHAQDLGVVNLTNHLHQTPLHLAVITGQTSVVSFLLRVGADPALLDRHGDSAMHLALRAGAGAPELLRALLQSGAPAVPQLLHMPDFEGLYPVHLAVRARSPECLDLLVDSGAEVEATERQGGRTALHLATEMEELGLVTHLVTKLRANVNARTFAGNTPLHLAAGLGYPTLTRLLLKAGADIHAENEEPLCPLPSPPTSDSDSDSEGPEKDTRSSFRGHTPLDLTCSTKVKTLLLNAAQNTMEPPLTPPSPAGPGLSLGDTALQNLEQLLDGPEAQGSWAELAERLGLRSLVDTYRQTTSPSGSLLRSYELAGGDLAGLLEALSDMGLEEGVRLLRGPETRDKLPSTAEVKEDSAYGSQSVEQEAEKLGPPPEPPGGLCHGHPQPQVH
Nature of the assay: co-IP; extracts of HEK293T cells transfected with tagged constructs; in some panels treated with EBSS and Baf.

Consider HA-p62 (from UniProt Q13501 1-440), for which the binding result is listed as “no binding”.
